Test [1] deals with T1, OsYABBY1 (rice (Oryza sativa)) (UniProt Q7XIM7).
T1 sequence: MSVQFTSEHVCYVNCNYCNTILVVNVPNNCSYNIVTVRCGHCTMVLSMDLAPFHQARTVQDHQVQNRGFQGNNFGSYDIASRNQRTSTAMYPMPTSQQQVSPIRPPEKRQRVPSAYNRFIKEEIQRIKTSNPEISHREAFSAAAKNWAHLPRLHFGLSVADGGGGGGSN
As to the kind of experiment: two-hybrid; OsYABBYs as bait in pGBKT7, OsWOX3A or OsWUS as prey in pGADT7; yeast AH109; growth on SD/-Leu/-Trp/-His/-Ade medium.

Test [2] addresses T2, DL (DROOPING LEAF) (rice (Oryza sativa)) (UniProt Q76EJ0).
T2 sequence: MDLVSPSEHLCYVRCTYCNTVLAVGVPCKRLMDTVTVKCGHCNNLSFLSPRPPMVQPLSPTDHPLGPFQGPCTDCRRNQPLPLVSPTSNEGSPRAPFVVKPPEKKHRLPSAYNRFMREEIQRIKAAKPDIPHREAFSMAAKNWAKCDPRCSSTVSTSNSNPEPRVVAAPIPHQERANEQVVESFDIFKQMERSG
Described as above.

For test [3], the target named is T3, OsYABBY6 (rice (Oryza sativa)) (UniProt Q2QM17).
T3 sequence: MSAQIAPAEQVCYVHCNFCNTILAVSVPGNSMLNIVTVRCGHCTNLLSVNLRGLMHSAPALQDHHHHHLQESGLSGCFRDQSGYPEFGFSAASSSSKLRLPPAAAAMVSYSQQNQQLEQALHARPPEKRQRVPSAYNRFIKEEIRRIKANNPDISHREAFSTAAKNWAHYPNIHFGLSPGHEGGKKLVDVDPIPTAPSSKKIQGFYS
The description is as above.

Test [4] addresses T4, OsYABBY3 (rice (Oryza sativa)) (UniProt Q8L556).
T4 sequence: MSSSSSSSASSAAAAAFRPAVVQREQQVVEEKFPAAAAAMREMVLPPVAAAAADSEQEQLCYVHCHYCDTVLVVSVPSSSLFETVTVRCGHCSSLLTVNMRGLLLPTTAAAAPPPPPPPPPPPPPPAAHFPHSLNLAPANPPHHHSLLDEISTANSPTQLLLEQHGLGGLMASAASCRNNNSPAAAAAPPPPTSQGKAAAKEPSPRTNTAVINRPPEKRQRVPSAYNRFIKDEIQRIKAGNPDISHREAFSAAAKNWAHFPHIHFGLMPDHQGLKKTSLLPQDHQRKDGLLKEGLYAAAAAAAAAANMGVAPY
The test is described as above.

For test [5], the target named is T5, OsYABBY4 (rice (Oryza sativa)) (UniProt Q6H668).
T5 sequence: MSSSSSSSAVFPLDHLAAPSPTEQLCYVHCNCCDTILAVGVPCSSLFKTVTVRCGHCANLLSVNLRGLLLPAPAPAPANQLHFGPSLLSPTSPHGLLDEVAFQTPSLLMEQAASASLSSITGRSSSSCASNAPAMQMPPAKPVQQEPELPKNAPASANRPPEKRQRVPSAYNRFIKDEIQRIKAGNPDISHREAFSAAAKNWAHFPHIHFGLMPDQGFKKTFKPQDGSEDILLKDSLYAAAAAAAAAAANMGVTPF
Described as above.

Test [6] deals with T6, OsYABBY5 (rice (Oryza sativa)) (UniProt Q0JBF0).
T6 sequence: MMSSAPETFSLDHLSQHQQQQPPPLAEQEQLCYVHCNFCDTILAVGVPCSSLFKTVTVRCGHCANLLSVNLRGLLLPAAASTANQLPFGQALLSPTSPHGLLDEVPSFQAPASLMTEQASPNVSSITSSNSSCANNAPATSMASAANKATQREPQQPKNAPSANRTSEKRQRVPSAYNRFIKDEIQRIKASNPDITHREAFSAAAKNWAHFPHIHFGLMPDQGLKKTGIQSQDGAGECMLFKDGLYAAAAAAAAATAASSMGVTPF
Described as above.

The target in test [7] is T7, OsYABBY2 (rice (Oryza sativa)) (UniProt Q10FZ7).
T7 sequence: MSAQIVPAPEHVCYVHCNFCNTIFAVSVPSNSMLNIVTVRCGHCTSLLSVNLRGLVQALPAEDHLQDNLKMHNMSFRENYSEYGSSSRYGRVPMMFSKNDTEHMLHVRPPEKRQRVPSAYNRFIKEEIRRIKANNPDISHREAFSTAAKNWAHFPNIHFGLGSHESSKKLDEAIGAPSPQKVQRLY
The test is described as above.

The target of test [8] is T1, OsYABBY1 (rice (Oryza sativa)). As to the kind of experiment: split reporter; luciferase complementation imaging (LCI): OsYABBY in the N-luc vector, partner in the C-luc vector, expressed together in Nicotiana benthamiana; bioluminescence detected by Tanon5200.
The target in test [9] is T2, DL (DROOPING LEAF) (rice (Oryza sativa)). The description is as above.
For test [10], the target named is T3, OsYABBY6 (rice (Oryza sativa)). The description is as above.
Test [11] addresses T4, OsYABBY3 (rice (Oryza sativa)). Described as above.
In test [12] the target is T5, OsYABBY4 (rice (Oryza sativa)). The description is as above.
For test [13], the target named is T6, OsYABBY5 (rice (Oryza sativa)). The test is described as above.
The target of test [14] is T7, OsYABBY2 (rice (Oryza sativa)). The description is as above.

Results are given in words; binding and its absence hold for the method and conditions named. Binding can be weak; no strength is given. For some assays here: In cells and extracts the contact can be indirect.

Turning to OsWOX3A (rice (Oryza sativa)), the binding entry in [1] is “binds”; in [2], “binds weakly”; in test [3] it was “binds”; in test [4] it was “binds”; in [5], “binds”; in [6], “binds”. Besides, the binding entry in [7] was “binds”; in test [8] it was “binds”; in [9], “binds weakly”; in [10], “binds”; in test [11] it was “binds”; in test [12], “binds”. In addition, the binding entry in test [13] and in [14] was “binds” throughout.

Values taken from PMC9969854.
